In patent publication US20200164034A1, “METHODS FOR IMPROVING SEX-DIMORPHIC RESPONSES TO TARGETED THERAPY IN MELANOMA” (Board of Regents, The University of Texas System, priority 2018, published 2020):
For at least one compound, name, drawing or mass did not settle the structure.

Assays:
Type in all cases: cell-based, human
[1] = system: BRAFV600E melanoma cell lines; assay: Hormonal co-treatment in vitro: proliferative response to DT; details: cell culture, co-treatment with dabrafenib 1 μM and trametinib 100 nM
[2] = system: BRAFV600E melanoma cell lines; assay: Hormonal co-treatment in vitro: cell cycle response to DT; details: cell culture, co-treatment with dabrafenib 1 μM and trametinib 100 nM
Experimental: (§1) In parallel, hormonal perturbations were evaluated in vitro using a panel of BRAFV600E melanoma cell lines derived from melanoma patients of the institution.
(§2) Melanoma cell lines derived from tumors of patients treated at UT MD Anderson Cancer Center under the TIL program were obtained from Dr. Chantale Bernatchez and Dr. Scott Woodman. For these studies, n=5 male (2373, 2400, 2650, 2800 and 624-mel) and n=5 female (2153, 2333, 2379, 2508, 2510) lines were selected based on carriage of BRAF^V600E/K mutations and avoidance of prior exposure in vivo to MAPK blockade therapies. Cells were maintained in phenol red-free RPMI-1640 supplemented with 10% heat-inactivated FBS, 1% GlutaMAX and 1% Pencillin/Streptomycin (all Gibco). LNCaP, MCF7 and PC3 cell lines were obtained from institutional stocks and maintained in RPMI-1640 supplemented as above (LNCaP, MCF7) or DMEM/F12 supplemented as above (PC3). All cell lines were confirmed mycoplasma negative using the Lonza MycoALERT kit prior to use, and authenticated by STR profiling via the MD Anderson Characterized Cell Line Core. […]

[3] = system: BRAFV600E melanoma cell lines; assay: Hormonal co-treatment in vitro: apoptosis response to DT; details: cell culture, co-treatment with dabrafenib 1 μM and trametinib 100 nM, 72 hours
Experimental: as §1
as §2, with “(PC3).” for “(PC3). All cell lines were confirmed mycoplasma negative using the Lonza MycoALERT kit prior to use, and authenticated by STR profiling via the MD Anderson Characterized Cell Line Core.”
Cells were plated into 6-well plates at 250,000 cells/well in full growth media and allowed to adhere overnight prior to drug treatment as shown in results in reduced-serum medium (5% FBS, phenol red-free RPMI-1640). […] Data acquisition by flow cytometry was performed within 2 hours of cell harvest and analyzed in FlowJo after gating on cell size, singlets, and applying Curly Quadrant gates to PI vs YO-PRO-1 fluorescence.

C[C@]12CC[C@@H]3c4ccc(O)cc4CC[C@H]3[C@@H]1CC[C@@H]2O [estradiol]
no significant effects: effect on proliferative response to DT treatment [1] | effect on cell cycle response to DT treatment [2] | effect on apoptosis response to DT treatment [3]
